# Measured values reported in the supplement of paper PMC10849652.
# Chains of the proteins cited; added tags and fusions are not shown. Lines headed by an entry give the natural chain unless they say otherwise; changes in a name come on top.
# UniProt Q9UER7, whole entry, looked up: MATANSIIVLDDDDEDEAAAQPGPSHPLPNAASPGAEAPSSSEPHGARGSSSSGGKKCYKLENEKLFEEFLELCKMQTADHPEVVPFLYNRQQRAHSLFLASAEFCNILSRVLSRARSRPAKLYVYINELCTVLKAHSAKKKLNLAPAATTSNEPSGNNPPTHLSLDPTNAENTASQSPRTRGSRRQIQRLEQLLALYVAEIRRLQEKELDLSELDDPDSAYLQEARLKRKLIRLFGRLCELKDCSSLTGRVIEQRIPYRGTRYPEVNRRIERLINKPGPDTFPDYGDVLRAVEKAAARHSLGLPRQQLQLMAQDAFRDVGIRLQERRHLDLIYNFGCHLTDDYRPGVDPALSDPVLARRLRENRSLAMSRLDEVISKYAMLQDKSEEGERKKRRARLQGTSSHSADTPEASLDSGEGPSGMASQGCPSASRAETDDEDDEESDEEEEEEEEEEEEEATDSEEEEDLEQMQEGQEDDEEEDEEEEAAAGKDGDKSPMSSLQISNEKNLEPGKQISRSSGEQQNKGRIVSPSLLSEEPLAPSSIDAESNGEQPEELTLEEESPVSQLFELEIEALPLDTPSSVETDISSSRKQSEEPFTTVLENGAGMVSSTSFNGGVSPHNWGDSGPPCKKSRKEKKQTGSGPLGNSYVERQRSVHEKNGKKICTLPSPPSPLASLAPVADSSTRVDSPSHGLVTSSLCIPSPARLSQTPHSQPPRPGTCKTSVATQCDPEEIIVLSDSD
# UniProt P35222, whole entry, looked up: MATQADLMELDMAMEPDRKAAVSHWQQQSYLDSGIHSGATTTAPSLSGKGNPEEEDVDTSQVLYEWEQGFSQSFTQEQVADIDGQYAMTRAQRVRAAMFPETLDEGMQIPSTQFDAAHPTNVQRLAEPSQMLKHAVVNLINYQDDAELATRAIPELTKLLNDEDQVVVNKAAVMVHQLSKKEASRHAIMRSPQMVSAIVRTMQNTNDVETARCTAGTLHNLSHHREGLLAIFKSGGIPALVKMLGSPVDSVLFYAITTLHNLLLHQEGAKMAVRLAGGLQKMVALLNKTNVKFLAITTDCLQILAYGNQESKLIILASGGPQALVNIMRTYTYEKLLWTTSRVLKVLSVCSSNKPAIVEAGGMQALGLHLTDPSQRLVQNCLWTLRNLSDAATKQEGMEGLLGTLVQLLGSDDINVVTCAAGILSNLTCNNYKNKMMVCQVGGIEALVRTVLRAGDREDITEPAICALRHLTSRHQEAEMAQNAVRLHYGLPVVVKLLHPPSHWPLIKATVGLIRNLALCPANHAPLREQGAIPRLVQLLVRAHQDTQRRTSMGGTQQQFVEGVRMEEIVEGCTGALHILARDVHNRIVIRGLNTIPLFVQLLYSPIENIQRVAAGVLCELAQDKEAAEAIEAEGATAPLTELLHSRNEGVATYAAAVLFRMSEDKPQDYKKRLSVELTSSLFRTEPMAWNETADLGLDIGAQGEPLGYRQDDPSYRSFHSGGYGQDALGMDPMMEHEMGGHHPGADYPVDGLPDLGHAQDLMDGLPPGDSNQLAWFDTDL
# UniProt Q9NSA3: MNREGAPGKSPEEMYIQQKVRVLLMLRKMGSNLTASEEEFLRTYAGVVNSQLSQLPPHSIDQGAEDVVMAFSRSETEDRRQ
# UniProt Q9UK59: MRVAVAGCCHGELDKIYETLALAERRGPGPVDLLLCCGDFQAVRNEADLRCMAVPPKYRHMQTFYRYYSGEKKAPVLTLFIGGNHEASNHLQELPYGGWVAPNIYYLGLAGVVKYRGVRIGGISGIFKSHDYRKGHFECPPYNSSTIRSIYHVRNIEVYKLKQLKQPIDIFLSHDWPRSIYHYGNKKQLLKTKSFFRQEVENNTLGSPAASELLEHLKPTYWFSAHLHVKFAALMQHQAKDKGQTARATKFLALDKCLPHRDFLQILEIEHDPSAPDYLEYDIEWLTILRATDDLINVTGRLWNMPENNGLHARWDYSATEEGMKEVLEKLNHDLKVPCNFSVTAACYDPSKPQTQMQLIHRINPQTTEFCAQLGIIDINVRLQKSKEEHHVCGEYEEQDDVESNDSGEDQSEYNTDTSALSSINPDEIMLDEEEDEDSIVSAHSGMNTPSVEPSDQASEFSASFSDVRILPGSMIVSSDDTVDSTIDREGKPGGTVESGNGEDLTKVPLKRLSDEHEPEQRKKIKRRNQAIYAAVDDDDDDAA
# UniProt Q6UX04: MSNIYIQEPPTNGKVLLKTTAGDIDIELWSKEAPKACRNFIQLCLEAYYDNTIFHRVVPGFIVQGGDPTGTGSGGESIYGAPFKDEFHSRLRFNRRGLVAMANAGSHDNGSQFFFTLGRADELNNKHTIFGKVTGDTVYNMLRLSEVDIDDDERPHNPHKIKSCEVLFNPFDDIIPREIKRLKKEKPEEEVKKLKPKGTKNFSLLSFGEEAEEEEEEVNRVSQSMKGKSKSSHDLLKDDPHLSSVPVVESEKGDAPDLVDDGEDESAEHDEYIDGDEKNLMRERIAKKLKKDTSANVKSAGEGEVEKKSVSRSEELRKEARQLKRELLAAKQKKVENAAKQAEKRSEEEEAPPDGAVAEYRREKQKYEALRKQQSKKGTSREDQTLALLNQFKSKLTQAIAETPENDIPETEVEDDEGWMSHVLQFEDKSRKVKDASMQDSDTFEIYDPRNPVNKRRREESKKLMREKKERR
# UniProt Q9UBR2: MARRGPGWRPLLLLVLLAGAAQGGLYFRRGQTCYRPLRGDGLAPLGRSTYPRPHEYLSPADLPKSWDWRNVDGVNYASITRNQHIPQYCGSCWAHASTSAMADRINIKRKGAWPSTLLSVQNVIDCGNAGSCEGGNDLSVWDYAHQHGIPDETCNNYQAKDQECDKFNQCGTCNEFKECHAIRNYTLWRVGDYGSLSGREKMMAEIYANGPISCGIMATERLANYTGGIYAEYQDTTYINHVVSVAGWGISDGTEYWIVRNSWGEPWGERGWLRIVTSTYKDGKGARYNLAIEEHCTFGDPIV
# UniProt Q9NV06: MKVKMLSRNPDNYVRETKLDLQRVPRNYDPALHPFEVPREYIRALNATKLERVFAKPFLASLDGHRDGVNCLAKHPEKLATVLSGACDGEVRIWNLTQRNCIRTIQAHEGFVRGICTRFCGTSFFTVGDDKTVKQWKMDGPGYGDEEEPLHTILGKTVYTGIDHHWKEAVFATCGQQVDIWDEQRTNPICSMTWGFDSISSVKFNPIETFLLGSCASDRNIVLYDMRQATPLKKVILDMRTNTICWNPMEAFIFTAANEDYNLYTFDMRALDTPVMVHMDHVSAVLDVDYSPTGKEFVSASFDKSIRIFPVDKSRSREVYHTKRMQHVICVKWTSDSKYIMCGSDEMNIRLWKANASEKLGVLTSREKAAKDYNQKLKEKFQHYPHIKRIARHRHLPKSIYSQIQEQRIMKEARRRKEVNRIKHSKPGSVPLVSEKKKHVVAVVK
# UniProt P01037: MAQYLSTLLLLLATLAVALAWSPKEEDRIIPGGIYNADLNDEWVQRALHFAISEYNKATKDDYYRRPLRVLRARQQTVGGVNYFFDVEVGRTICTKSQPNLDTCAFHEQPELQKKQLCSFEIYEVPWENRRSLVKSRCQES
# UniProt P25774, whole entry, looked up: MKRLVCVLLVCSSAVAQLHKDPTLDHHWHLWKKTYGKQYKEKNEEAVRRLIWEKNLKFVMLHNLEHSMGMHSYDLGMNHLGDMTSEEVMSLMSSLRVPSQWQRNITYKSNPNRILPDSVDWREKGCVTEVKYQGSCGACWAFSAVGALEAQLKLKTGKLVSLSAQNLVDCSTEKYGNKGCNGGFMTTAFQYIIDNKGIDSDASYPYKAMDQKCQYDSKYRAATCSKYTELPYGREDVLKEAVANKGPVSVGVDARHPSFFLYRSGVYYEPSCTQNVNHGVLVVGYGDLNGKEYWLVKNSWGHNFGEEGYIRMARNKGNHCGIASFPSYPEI
# UniProt Q96GG9: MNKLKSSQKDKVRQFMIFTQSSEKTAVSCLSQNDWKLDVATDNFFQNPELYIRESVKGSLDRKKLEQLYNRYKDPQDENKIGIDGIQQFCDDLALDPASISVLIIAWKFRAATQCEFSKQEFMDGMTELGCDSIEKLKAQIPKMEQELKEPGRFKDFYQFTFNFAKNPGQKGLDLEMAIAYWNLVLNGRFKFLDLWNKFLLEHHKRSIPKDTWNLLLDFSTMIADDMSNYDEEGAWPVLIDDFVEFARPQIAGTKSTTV
# UniProt Q53TN4: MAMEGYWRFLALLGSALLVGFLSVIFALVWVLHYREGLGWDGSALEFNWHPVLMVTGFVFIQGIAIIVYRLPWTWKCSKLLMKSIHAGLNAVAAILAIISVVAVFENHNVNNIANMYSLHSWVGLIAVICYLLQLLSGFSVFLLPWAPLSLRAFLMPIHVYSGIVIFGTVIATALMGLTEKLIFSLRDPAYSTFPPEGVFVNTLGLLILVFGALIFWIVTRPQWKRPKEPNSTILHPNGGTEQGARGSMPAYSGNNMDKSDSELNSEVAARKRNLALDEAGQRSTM
# UniProt Q96DE9: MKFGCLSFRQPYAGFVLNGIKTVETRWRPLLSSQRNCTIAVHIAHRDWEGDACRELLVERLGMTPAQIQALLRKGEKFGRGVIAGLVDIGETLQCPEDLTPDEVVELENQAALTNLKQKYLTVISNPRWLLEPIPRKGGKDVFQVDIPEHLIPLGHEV
# UniProt Q9Y4D1, whole entry, looked up: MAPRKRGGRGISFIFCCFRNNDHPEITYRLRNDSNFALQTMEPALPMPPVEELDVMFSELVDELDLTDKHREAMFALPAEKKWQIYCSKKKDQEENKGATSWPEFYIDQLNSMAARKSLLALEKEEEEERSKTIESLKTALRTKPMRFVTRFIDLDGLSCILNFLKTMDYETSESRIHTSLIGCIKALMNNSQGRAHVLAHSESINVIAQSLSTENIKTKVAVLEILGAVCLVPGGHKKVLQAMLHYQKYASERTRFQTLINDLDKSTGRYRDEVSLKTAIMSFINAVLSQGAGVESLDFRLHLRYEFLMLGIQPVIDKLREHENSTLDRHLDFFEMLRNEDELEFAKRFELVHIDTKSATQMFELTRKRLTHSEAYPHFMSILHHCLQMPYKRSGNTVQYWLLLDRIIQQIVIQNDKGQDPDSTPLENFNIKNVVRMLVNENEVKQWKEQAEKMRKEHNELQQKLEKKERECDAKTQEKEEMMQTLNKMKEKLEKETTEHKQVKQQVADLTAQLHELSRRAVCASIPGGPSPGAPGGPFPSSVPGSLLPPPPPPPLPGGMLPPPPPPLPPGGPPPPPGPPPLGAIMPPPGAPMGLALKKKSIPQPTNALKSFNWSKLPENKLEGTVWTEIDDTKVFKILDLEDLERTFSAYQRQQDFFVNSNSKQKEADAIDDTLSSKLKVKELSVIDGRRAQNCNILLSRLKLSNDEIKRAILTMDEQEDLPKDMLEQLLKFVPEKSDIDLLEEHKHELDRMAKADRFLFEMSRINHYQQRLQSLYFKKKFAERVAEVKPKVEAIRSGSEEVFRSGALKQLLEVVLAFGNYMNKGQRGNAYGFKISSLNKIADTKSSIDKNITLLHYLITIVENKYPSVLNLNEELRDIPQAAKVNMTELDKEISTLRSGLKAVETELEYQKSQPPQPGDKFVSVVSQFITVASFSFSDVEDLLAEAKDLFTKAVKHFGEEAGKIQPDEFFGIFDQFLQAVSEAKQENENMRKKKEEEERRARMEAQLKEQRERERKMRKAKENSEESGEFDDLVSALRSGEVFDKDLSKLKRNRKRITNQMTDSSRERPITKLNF
# UniProt Q8WV16: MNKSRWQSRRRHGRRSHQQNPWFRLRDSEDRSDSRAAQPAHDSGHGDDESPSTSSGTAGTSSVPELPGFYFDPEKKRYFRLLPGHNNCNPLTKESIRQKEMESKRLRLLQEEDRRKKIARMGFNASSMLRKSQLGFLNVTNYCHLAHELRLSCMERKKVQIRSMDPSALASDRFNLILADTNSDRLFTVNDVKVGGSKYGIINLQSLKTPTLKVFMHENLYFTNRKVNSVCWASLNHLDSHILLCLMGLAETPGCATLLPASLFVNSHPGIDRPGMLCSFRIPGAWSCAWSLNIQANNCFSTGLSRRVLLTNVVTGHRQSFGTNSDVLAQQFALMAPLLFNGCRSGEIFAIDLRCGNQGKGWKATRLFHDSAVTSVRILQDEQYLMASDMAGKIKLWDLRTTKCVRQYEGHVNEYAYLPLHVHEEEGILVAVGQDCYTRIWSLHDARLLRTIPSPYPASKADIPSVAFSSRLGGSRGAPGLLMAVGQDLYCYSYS
# UniProt P49447: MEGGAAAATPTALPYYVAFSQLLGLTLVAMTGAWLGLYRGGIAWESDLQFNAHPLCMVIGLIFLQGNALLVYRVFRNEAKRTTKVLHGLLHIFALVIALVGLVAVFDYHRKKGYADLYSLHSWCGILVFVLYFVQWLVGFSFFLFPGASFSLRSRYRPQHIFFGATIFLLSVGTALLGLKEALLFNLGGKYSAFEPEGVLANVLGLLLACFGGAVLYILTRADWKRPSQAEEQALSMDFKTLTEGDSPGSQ
# The list shows a part of the results.
# Tests used:
# Experiment in all cases: log2 fold change, soluble protein after heating vs DMSO (PISA); higher = thermal stabilisation; K562 cells, 10 uM, 30 min; active = over 0.2 and 3.5 SD of the protein, either way, in both replicates (recomputed)
# saracatinib = compound: CN1CCN(CCOc2cc(OC3CCOCC3)c3c(Nc4c(Cl)ccc5c4OCO5)ncnc3c2)CC1 [saracatinib]
# Summary of the method: (§1)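 K562 cells at 2×10^6 cells/mL were given 10 μM compound for 30 min. Aliquots then went through 3 min of heating across 48°C-58°C, were pooled, and were extracted in PBS with 0.5% NP-40 at 4°C, and the supernatant after 21,000xg for 90 min was quantified by TMTpro 16plex LC-MS/MS with channel sums equalised. Thermal stability relative to control samples, from duplicates, is given as log2 fold change.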
# sotrastaurin = compound: CN1CCN(c2nc(C3=C(c4c[nH]c5ccccc45)C(=O)NC3=O)c3ccccc3n2)CC1 [sotrastaurin]
# Summary of the method: as §1
# Tubastatin A = compound: CN1CCc2c(c3ccccc3n2Cc2ccc(C(=O)NO)cc2)C1 [Tubastatin A]
# Summary of the method: as §1
# [1] = compound: CNC(=O)C1=CC=CC=C1NC2=NC(=NC=C2Cl)NC3=C(C=C(C=C3)N4CCOCC4)OC
# Summary of the method: as §1
# defactinib = compound: CNC(=O)c1ccc(Nc2ncc(C(F)(F)F)c(NCc3nccnc3N(C)S(C)(=O)=O)n2)cc1 [defactinib]
# Summary of the method: as §1
# rucaparib = compound: CNCc1ccc(-c2[nH]c3cc(F)cc4c3c2CCNC4=O)cc1 [rucaparib]
# Summary of the method: as §1
# [2] = compound: CNc1nc(-c2ccc3c(N)n[nH]c3c2)cc(N2C[C@@H](C(=O)NC3CCCCC3)CC[C@H]2C)n1
# Summary of the method: as §1
# encorafenib = compound: COC(=O)N[C@@H](C)CNc1nccc(-c2cn(C(C)C)nc2-c2cc(Cl)cc(NS(C)(=O)=O)c2F)n1 [encorafenib]
# Summary of the method: as §1
# [3] = compound: COC(=O)[C@H](CCSC)NC(=O)C1=C(C=C(C=C1)NC[C@H](CS)N)C2=CC=CC=C2
# Summary of the method: as §1
# [4] = compound: COC1=CC=C(C=C1)CN2C=CC3=C2C=C(C=C3)C(=O)NO
# Summary of the method: as §1
# filanesib = compound: CON(C)C(=O)N1N=C(c2cc(F)ccc2F)S[C@@]1(CCCN)c1ccccc1 [filanesib]
# Summary of the method: as §1
# zotarolimus = compound: CO[C@H]1C[C@@H]2CC[C@@H](C)[C@@](O)(O2)C(=O)C(=O)N2CCCC[C@H]2C(=O)O[C@H]([C@H](C)C[C@@H]2CC[C@H](n3cnnn3)[C@H](OC)C2)CC(=O)[C@H](C)/C=C(\C)[C@@H](O)[C@@H](OC)C(=O)[C@H](C)C[C@H](C)/C=C/C=C/C=C/1C [zotarolimus]
# Summary of the method: as §1
# idasanutlin = compound: COc1cc(C(=O)O)ccc1NC(=O)[C@@H]1N[C@@H](CC(C)(C)C)[C@](C#N)(c2ccc(Cl)cc2F)[C@H]1c1cccc(Cl)c1F [idasanutlin]
# Summary of the method: as §1
# [5] = compound: COc1cc2nc(-c3cc(F)ccc3O)nc(N[C@@H]3CNC[C@H]3C(C)(C)O)c2cc1OC
# Summary of the method: as §1
# gefitinib = compound: COc1cc2ncnc(Nc3ccc(F)c(Cl)c3)c2cc1OCCCN1CCOCC1 [gefitinib]
# Summary of the method: as §1
# lapatinib = compound: CS(=O)(=O)CCNCc1ccc(-c2ccc3ncnc(Nc4ccc(OCc5cccc(F)c5)c(Cl)c4)c3c2)o1 [lapatinib]
# Summary of the method: as §1
# pictilisib = compound: CS(=O)(=O)N1CCN(Cc2cc3nc(-c4cccc5[nH]ncc45)nc(N4CCOCC4)c3s2)CC1 [pictilisib]
# Summary of the method: as §1
# alisertib = compound: COc1cc(Nc2ncc3c(n2)-c2ccc(Cl)cc2C(c2c(F)cccc2OC)=NC3)ccc1C(=O)O [alisertib]
# Summary of the method: as §1
# [6] = compound: COc1cccc2cc(-c3nc([C@H]4CC[C@H](C(=O)O)CC4)n4ncnc(N)c34)[nH]c12
# Summary of the method: as §1
# alvocidib = compound: CN1CC[C@H](c2c(O)cc(O)c3c(=O)cc(-c4ccccc4Cl)oc23)[C@H](O)C1 [alvocidib]
# Summary of the method: as §1
Target,log2 fold change (saracatinib),log2 fold change (sotrastaurin),log2 fold change (Tubastatin A),log2 fold change [1],log2 fold change (defactinib),log2 fold change (rucaparib),log2 fold change [2],log2 fold change (encorafenib),log2 fold change [3],log2 fold change [4],log2 fold change (filanesib),log2 fold change (zotarolimus),log2 fold change (idasanutlin),log2 fold change [5],log2 fold change (gefitinib),log2 fold change (lapatinib),log2 fold change (pictilisib),log2 fold change (alisertib),log2 fold change [6],log2 fold change (alvocidib)
DAXX (UniProt Q9UER7),inactive: -0.001,inactive: -0.078,inactive: 0.122,inactive: -0.142,inactive: 0.005,inactive: 0.048,inactive: 0.018,inactive: -0.097,inactive: 0.109,inactive: 0.248,inactive: 0.008,inactive: 0.055,inactive: -0.067,inactive: 0.283,inactive: -0.125,inactive: -0.05,inactive: 0.247,,,
CTNNB1 (UniProt P35222),inactive: 0.032,active: 1.08,inactive: 0.148,inactive: -0.065,inactive: 0.074,inactive: -0.145,inactive: -0.025,inactive: 0.079,inactive: -0.015,inactive: -0.082,inactive: 0.174,inactive: 0.029,inactive: -0.056,inactive: 0.072,inactive: -0.001,inactive: 0,inactive: -0.2,inactive: -0.084,inactive: 0.054,
CTNNBIP1 (UniProt Q9NSA3),inactive: -0.137,,,,,,inactive: -0.02,,,,,inactive: 0.037,,,,,inactive: -0.193,inactive: -0.009,inactive: -0.014,inactive: 0.042
DCBLD1 (UniProt Q8N8Z6),inactive: -0.035,,,,,,inactive: 0.086,,,,,inactive: 0.017,,inactive: -0.157,,inactive: -0.126,,,,inactive: -0.082
CSTF3 (UniProt Q12996),inactive: 0.001,inactive: 0.045,inactive: -0.08,inactive: 0.043,inactive: 0.173,inactive: 0.088,inactive: -0.051,inactive: -0.022,inactive: 0.002,inactive: -0.008,inactive: -0.041,inactive: -0.033,inactive: -0.087,inactive: 0.176,inactive: -0.005,inactive: -0.012,inactive: 0.066,inactive: -0.056,inactive: 0.022,
DBR1 (UniProt Q9UK59),inactive: 0.048,inactive: 0.019,inactive: -0.012,inactive: -0.033,inactive: -0.012,inactive: -0.007,inactive: -0.004,inactive: -0.012,inactive: -0.011,inactive: 0.051,inactive: 0.036,inactive: -0.003,inactive: 0.015,inactive: 0.017,inactive: -0.049,inactive: -0.021,inactive: -0.064,inactive: -0.018,inactive: 0.054,
CUX1 isoform 2 (UniProt Q13948),inactive: -0.065,inactive: -0.012,inactive: 0.006,inactive: 0.03,inactive: -0.049,inactive: 0.061,inactive: 0.048,inactive: 0.056,inactive: -0.062,inactive: -0.095,inactive: 0.077,inactive: -0.007,inactive: -0.043,inactive: -0.062,inactive: -0.029,inactive: 0.009,inactive: 0.018,inactive: 0.012,inactive: 0.074,
CWC27 (UniProt Q6UX04),inactive: 0.01,inactive: -0.093,inactive: 0.012,inactive: 0.022,inactive: -0.139,inactive: -0.001,inactive: -0.064,inactive: 0.068,inactive: -0.04,inactive: 0.047,inactive: -0.017,inactive: -0.068,inactive: 0.014,inactive: 0.061,inactive: 0.021,inactive: -0.004,inactive: -0.036,inactive: -0.043,inactive: -0.046,
CTSZ (UniProt Q9UBR2),inactive: 0.025,inactive: 0.079,inactive: -0.056,inactive: 0.005,inactive: 0,inactive: -0.098,inactive: 0.012,inactive: -0.012,inactive: 0.027,inactive: 0.073,inactive: -0.05,inactive: 0.011,inactive: -0.019,inactive: -0.172,inactive: 0.035,inactive: 0.015,inactive: 0.176,inactive: -0.079,inactive: 0.07,
DCAF13 (UniProt Q9NV06),inactive: -0.027,inactive: 0.001,inactive: 0.094,inactive: 0.074,inactive: 0.165,inactive: 0.19,inactive: 0.045,inactive: 0.07,inactive: 0.029,inactive: -0.083,inactive: 0.333,inactive: -0.01,inactive: 0.17,inactive: -0.047,inactive: -0.063,inactive: 0.083,inactive: -0.103,inactive: -0.067,inactive: -0.112,
CST1 (UniProt P01037),inactive: -0.079,inactive: -0.091,,,inactive: -0.027,,inactive: 0.19,,inactive: -0.091,,inactive: -0.006,,,,inactive: 0.44,,,inactive: 0.273,inactive: 0.118,
CTSS (UniProt P25774),active: 0.478,inactive: 0.051,inactive: -0.084,,inactive: 0.074,inactive: 0.258,inactive: 0.134,inactive: -0.074,inactive: -0.012,inactive: 0.019,inactive: 0.051,inactive: -0.081,,,,,inactive: -0.043,,,
CYB561A3 isoform 2 (UniProt Q8NBI2),inactive: 0.019,inactive: 0.001,inactive: 0.047,inactive: 0.025,,active: 0.395,inactive: -0.068,inactive: -0.014,,inactive: -0.026,inactive: -0.073,inactive: 0.011,inactive: -0.066,inactive: 0.023,inactive: -0.06,inactive: -0.019,inactive: 0.263,inactive: 0.041,inactive: 0.088,
DCUN1D1 (UniProt Q96GG9),inactive: 0.032,inactive: -0.001,inactive: -0.009,inactive: 0.007,inactive: -0.033,inactive: -0.026,inactive: -0.02,inactive: 0.014,inactive: -0.011,inactive: 0.065,inactive: -0.003,inactive: 0.015,inactive: -0.062,inactive: -0.021,inactive: 0.004,inactive: 0.019,inactive: 0.015,inactive: 0.008,inactive: 0.031,
CYBRD1 (UniProt Q53TN4),inactive: -0.16,,,inactive: -0.246,inactive: -0.005,inactive: 0.099,inactive: -0.036,inactive: 0.206,inactive: 0.007,inactive: 0.088,,inactive: -0.034,inactive: 0.106,inactive: -0.059,,inactive: -0.067,inactive: 0.037,inactive: -0.189,inactive: -0.044,inactive: 0.213
CSTF2 (UniProt P33240),inactive: -0.02,inactive: 0.105,inactive: -0.064,inactive: -0.023,inactive: 0.023,inactive: 0.034,inactive: -0.092,inactive: -0.08,inactive: -0.028,inactive: -0.052,inactive: 0.005,inactive: -0.009,inactive: 0.013,inactive: -0.005,inactive: -0.07,inactive: 0.021,inactive: 0.069,inactive: -0.016,inactive: 0.023,
CXorf40B (UniProt Q96DE9),inactive: -0.086,,,,,,inactive: -0.119,,,inactive: -0.208,,inactive: 0.027,inactive: 0.011,,,,inactive: -0.003,,,inactive: -0.041
CYP4V2 (UniProt Q6ZWL3),inactive: 0.056,,,inactive: 0.081,inactive: -0.045,inactive: 0.118,inactive: 0.058,inactive: -0.036,inactive: -0.018,inactive: -0.076,,inactive: -0.037,inactive: 0.061,,,,inactive: -0.034,,,inactive: -0.022
DAAM1 (UniProt Q9Y4D1),inactive: -0.086,,,,,,inactive: -0.071,,,,,inactive: 0.018,,,,,,,,inactive: 0.053
DCAF4 (UniProt Q8WV16),inactive: -0.097,inactive: 0.027,,,,inactive: -0.346,inactive: 0.193,inactive: 0.103,,,inactive: 0.018,,,,inactive: -0.012,,inactive: 0.074,inactive: -0.076,inactive: 0.005,
CYB561 (UniProt P49447),inactive: 0.097,,inactive: -0.004,inactive: -0.052,inactive: 0.098,inactive: -0.027,inactive: -0.058,inactive: 0.135,inactive: -0.142,inactive: -0.128,,inactive: -0.011,inactive: -0.017,inactive: -0.038,inactive: -0.172,inactive: 0.104,inactive: 0.001,inactive: -0.253,inactive: 0.156,inactive: 0.077

# Part of the list above, with tabs.
Target	log2 fold change (saracatinib)	log2 fold change (sotrastaurin)	log2 fold change (Tubastatin A)	log2 fold change [1]	log2 fold change (defactinib)	log2 fold change (rucaparib)	log2 fold change [2]	log2 fold change (encorafenib)	log2 fold change [3]	log2 fold change [4]	log2 fold change (filanesib)	log2 fold change (zotarolimus)	log2 fold change (idasanutlin)	log2 fold change [5]	log2 fold change (gefitinib)	log2 fold change (lapatinib)	log2 fold change (pictilisib)	log2 fold change (alisertib)	log2 fold change [6]	log2 fold change (alvocidib)
CWC27 (UniProt Q6UX04)	inactive: 0.01	inactive: -0.093	inactive: 0.012	inactive: 0.022	inactive: -0.139	inactive: -0.001	inactive: -0.064	inactive: 0.068	inactive: -0.04	inactive: 0.047	inactive: -0.017	inactive: -0.068	inactive: 0.014	inactive: 0.061	inactive: 0.021	inactive: -0.004	inactive: -0.036	inactive: -0.043	inactive: -0.046	
DCAF13 (UniProt Q9NV06)	inactive: -0.027	inactive: 0.001	inactive: 0.094	inactive: 0.074	inactive: 0.165	inactive: 0.19	inactive: 0.045	inactive: 0.07	inactive: 0.029	inactive: -0.083	inactive: 0.333	inactive: -0.01	inactive: 0.17	inactive: -0.047	inactive: -0.063	inactive: 0.083	inactive: -0.103	inactive: -0.067	inactive: -0.112	
